Data published in patent US5880092A, “Conformationally stabilized cell adhesion peptides” (La Jolla Cancer Research Foundation, priority 1995, dated 1999).
Not every detail of the peptide structures is certain; ends, links or a residue may be inferred.

Key:
[1] = system: attachment of normal rat kidney cells to vitronectin; experiment: Cell adhesion assay: inhibition of attachment of normal rat kidney cells to vitronectin; type: cell-based; conditions: vitronectin from human plasma coated at 12 μg/ml, peptide 0 to 10.0 mM, FIG. 2
Procedure: (§1) Fibronectin and vitronectin were purified from human plasma according to the methods of Ruoslahti et al., (1982) Meth. Enz. 82:803; and Hayman et al., (1983) PNAS 80:4003, respectively, both of which are incorporated herein by reference. The adhesion of normal rat kidney cells to fibronectin and vitronectin was assayed as described in Ruoslahti et al., Meth. Enz. supra. Briefly, 0.1 ml solution of fibronectin or vitronectin at a concentration of 12 μg/ml in 0.1M PBS was placed in each well of 96-well plastic microtiter plates and left for 2 hours at room temperature. The unattached protein was removed by washing three times with PBS.
(§2) One day before the assay, a confluent culture of normal rat kidney cells was split 1:2 using standard tissue culture trypsin. The cells were washed three times with PBS, pH 7.2. […] Before the last centrifugation, a sample was taken and cell numbers and viability by trypan blue exclusion are determined. […]
(§3) The unattached cells were removed simply by removing the medium and washing the wells. […] The cells were then fixed with 3% paraformaldehyde in PBS and stained with 1% toluidine blue, paraformaldehyde in PBS, and attached cells counted. Their number was determined using a cell counter that is capable of counting cells attached to a surface (Dynatech Laboratories, Alexandria, Va.). […]

[2] = system: attachment of normal rat kidney cells to fibronectin; experiment: Cell adhesion assay: inhibition of attachment of normal rat kidney cells to fibronectin; type: cell-based; conditions: fibronectin from human plasma coated at 12 μg/ml, peptide 0 to 10.0 mM, FIG. 2
Procedure: as §1, §2, §3

With C[C@H](NC(=O)[C@@H]1CSSC(C)(C)[C@H](NC(=O)CN)C(=O)NCC(=O)N[C@@H](CCCNC(=N)N)C(=O)NCC(=O)N[C@@H](CC(=O)O)C(=O)N[C@@H](CO)C(=O)N2CCC[C@H]2C(=O)N1)C(=O)O [cyclic peptide, Gly-Pen-Gly-Arg-Gly-Asp-Ser-Pro-Cys-Ala] the “inhibited attachment to vitronectin at lower molar concentration than the linear peptide” value [1] was 10 fold and the “inhibition of attachment to fibronectin” value [2] was “ineffective”.
